Values quoted from earlier work, collected in patent EP2514430B1, “METHOD AND APPARATUS FOR SIMULTANEOUSLY MANUFACTURING ULTRA PURE BETULIN AND HIGHLY PURE BETULINIC ACID FROM BIRCH BARK” (Korea Institute of Energy Research, priority 2009, dated 2011).
At least one compound was matched to its structure with a doubt left.

Test system: HIV
Conditions: Hg lymphocytic cell; Fujioka et al. 1994; cited from earlier work

For `C=C(C)[C@@H]1CC[C@]2(C(=O)O)CC[C@]3(C)[C@H](CC[C@@H]4[C@@]5(C)CC[C@H](O)C(C)(C)[C@@H]5CC[C@]43C)[C@@H]12` [betulinic acid], the anti-HIV activity is given as “anti-HIV activity”.
